Measured values reported in article PMC12766987.
These are yes or no findings as the source states them, for the method shown. Binding seen in cells or lysates may run through a third protein. Binding calls can cover weak binding; strength is not graded here. Tags and fused reporters may be left off the sequences shown.

Biological target: GFP-tagged Calhm6 fragment, CHD domain (residues 204-315)
Test: co-IP; 293T lysates, Flag-CaMK4 or Flag-Chp1 with fragments of GFP-tagged Calhm6; anti-GFP IP, blot with tag antibodies (Figure 7K, 7L)

B1: Flag-tagged CaMK4 (protein, UniProt P08414 1-469)
chain: MLKVTVPSCPSSPCSSVTASTENLVPDYWIDGSNRDPLGDFFEVESELGRGATSIVYRCKQKGTQKPYALKVLKKTVDKKIVRTEIGVLLRLSHPNIIKLKEIFETPTEISLVLELVTGGELFDRIVEKGYYSERDARDAVKQILEAVAYLHENGIVHRDLKPENLLYATPAPDAPLKIADFGLSKIVEHQVLMKTVCGTPGYCAPEILRGCAYGPEVDMWSVGIITYILLCGFEPFYDERGDQFMFRRILNCEYYFISPWWDEVSLNAKDLVKKLIVLDPKKRLTTFQALQHPWVTGKAANFVHMDTAQKKLQEFNARRKLKAAVKAVVASSRLGSASSSHTSIQENHKASSDPPSTQDAKDSTDLLGKKMQEEDQEEDQVEAEASADEMRKLQSEEVEKDAGVKEEETSSMVPQDPEDELETDDPEMKRDSEEKLKSVEEEMDPMTEEEAPDAGLGVPQQDAIQPEY
Question: B1 was tested. Which binding did it give?
Answer: binds
